Experimental data published in PubChem BioAssay AID493014 (National Center for Advancing Translational Sciences (NCATS), 2011).
The whole screen tested about 340,000 compounds, of which about 170 (0.05%) were called active. The shares of active, inactive and inconclusive entries below differ from those in the screen. The call rests on the fitted dose curve; in most records, active means well fitted inhibition curve with a large enough effect in the signal ratio, with a control signal flat (not every such curve was filed as active); inconclusive means small, poorly fitted or top-dose-only effect, or effect the other way, or a change in a side signal; inactive means flat fitted curve, though single readings scatter; the % refers to the signal ratio. Where the call is inconclusive, the potency comes from a doubtful curve fit.

Assay: qHTS Assay to Find Inhibitors of Chronic Active B-Cell Receptor Signaling;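 on activity change, negative = inhibition: plate controls were basal doxycycline-induced cells for no effect and cells given 10 µM MG132 for full effect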
Details: ABC-DLBCL IkBa-CBG/CBR reporter, luminescence ratio (green luciferase fused to IkBa over red control in TMD8 lymphoma cells), 4 h; activity change, negative = inhibition: at 46.1 µM (top of the series)
Method in brief: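 Concentration-response series (up to 46 uM) were applied to TMD8 dual-reporter cells for 4 h at 37C with doxycycline. Green/red ratio, after filter-overlap correction, defined %Activity; red signal alone was normalised to basal cells and zero luminescence.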
Potency means the concentration at half of the fitted maximal effect.

SMILES	activity change, negative = inhibition	Potency
CN(C)c1ccc(/C=C/C(=O)c2c(O)c3ccccc3oc2=O)cc1	inconclusive: -17%	–
CCOc1ccc(S(=O)(=O)N2c3ccccc3CC2C)cc1 (configuration not stated)	–	inconclusive: 20.6 µM [falling, partial curve, poor fit]
Cc1ccc(-c2nnc(SCC(=O)Nc3ccccc3F)o2)cc1	inconclusive: 379%	–
CCOC(=O)Cc1csc(NC(=S)NC(=O)CC(C)C)n1	–	inconclusive: 23.1 µM [falling, single point]
Cn1nnnc1Sc1ncnc2scc(-c3ccc(C(F)(F)F)cc3)c12	inconclusive: 12.3%	–
CCOc1ccc(/C=C(\C#N)C(=O)NCC2CCCO2)cc1OCC (configuration not stated)	inconclusive: -7.35%	–
CCc1c(C(=O)NC2CCCCC2)[nH]c(C)c1C(C)=O	inconclusive: 6.83%	–
CCC(C)NC(=O)/C=C/c1cccs1 (configuration not stated)	–	inconclusive: 20.6 µM [falling, partial curve, poor fit]
O=C(O)CCC(=O)Nc1ccccc1C(=O)NCc1ccccc1	inconclusive: 9.33%	–
C=CC[C@H](CC(=O)N(CCO)Cc1ccccc1)C(=O)N[C@H](COC(=O)[C@H](CC=C)CC(=O)OC(C)(C)C)Cc1c[nH]c2ccccc12	inconclusive: 0.586%	–
Cc1ccc(C2C(C#N)=C(N)Oc3n[nH]c(C)c32)cc1 (configuration not stated)	inconclusive: 0.271%	–
O=C(Nc1cccc2nsnc12)c1ccc(F)cc1	inconclusive: -28.7%	–
COc1cccc(-n2c(SCC(N)=O)nc3c([nH]c4ccccc43)c2=O)c1	–	inconclusive: 29.1 µM [falling, single point]
COc1ccc(NC(=O)c2cn(-c3ccccc3)nc2-c2cc3ccccc3o2)cc1	inactive	–
COc1ccccc1-c1cc(C(=O)Nc2c(F)cc(F)cc2Br)no1	inconclusive: 325%	–
Cc1ccccc1NC(=O)CSC1=NCCN1	–	inconclusive: 20.6 µM [falling, single point]
COc1ccc(NC(=O)CN(C)C(=O)c2cccc(NS(=O)(=O)c3ccc(Br)cc3)c2)cc1	inactive	–
OCC1CCCCN1CC(O)COC(c1ccc(F)cc1)c1ccc(F)cc1 (configuration not stated)	inconclusive: -7.61%	–
COc1cccc(-n2c(-c3ccc4[nH]c(C)c(C)c4c3)n[nH]c2=S)c1	–	inconclusive: 14.1 µM [falling, partial curve, poor fit]
Brc1ccc(-c2cnnc(N3CCCC3)n2)cc1	inconclusive: -0.614%	–
COc1ccc(CCN(C)C(=O)Cc2ccc(-c3ccccc3)cc2)cc1OC	inconclusive: 14.9%	–
Cc1cc(=O)[nH]c(Nc2cccc(F)c2)n1	inconclusive: 6.1%	–
COC(=O)C(C)N1C(=O)S/C(=C\c2ccc(-c3ccc(C(=O)O)cc3C)o2)C1=O (configuration not stated)	inconclusive: 0.273%	–
CC(=O)Nc1ccc(S(=O)(=O)NCCC(=O)NCCOc2ccccc2)cc1	inconclusive: 6.77%	–
O=C(ONc1ccc(N=NC(=O)c2ccccc2O)cc1)c1ccccc1	–	inconclusive: 0.651 µM [falling, partial curve, poor fit]
CCOC(=O)c1nn(-c2cccc(OC)c2)c2nc(Nc3ccccc3)cc(=O)n12	inconclusive: 4.28%	–

Gathered by group, the entries above containing a thiophene ring, fused or not
SMILES	activity change, negative = inhibition	Potency
Cn1nnnc1Sc1ncnc2scc(-c3ccc(C(F)(F)F)cc3)c12	inconclusive: 12.3%	–
CCC(C)NC(=O)/C=C/c1cccs1 (configuration not stated)	–	inconclusive: 20.6 µM [falling, partial curve, poor fit]

More records follow.

SMILES	activity change, negative = inhibition	Potency
COc1cccc(/C=N/NC(=O)CNC(=O)C2COc3ccccc3O2)c1O (configuration not stated)	inactive	–
C=CCN1C(=O)/C(=C\c2ccc(Cl)cc2)N=C1SCC(=O)NC1CCCCC1	inactive	–
O=C(NCc1cccnc1)c1ccc(NC(=O)c2cccc([N+](=O)[O-])c2)cc1	inconclusive: -1.21%	–
COc1ccc(OC)c(NC(=O)CSc2ccc3ccccc3c2)c1	inconclusive: -0.547%	–
Cc1cccc(OCCNc2nc3c(c(=O)n(C)c(=O)n3C)n2C)c1	inconclusive: 11.7%	–
O=C(NC(=S)Nc1ccccc1N1CCOCC1)c1ccco1	inconclusive: 3.95%	–
O=C(COc1ccc(Cl)cc1)N1CCN(C(=O)c2cccs2)CC1	–	inconclusive: 25.1 µM [falling, single point]
CCOc1ccc(-c2cc(C)n3nc(C(N)=O)cc3n2)cc1	inconclusive: 11%	–
Cn1nc(C(=O)OCC(=O)NCc2ccc(Cl)cc2)c2ccccc2c1=O	inactive	–
CC(=O)Nc1cccc(NC(=O)CSc2nc(=O)n3cccc(C)c3n2)c1	inactive	–
Oc1ccc(-c2csc(-c3c[nH]c4ccccc34)n2)c(O)c1	inconclusive: -9.76%	–
Cc1ccc(Cl)c(OCCN2CCc3ccccc3C2)c1	inactive	–
Cc1ccc(NC(=O)c2ccccc2OCC(=O)c2ccccc2)cc1	–	inconclusive: 2.91 µM [falling, partial curve, poor fit]
CC1=C(C(N)=O)C(c2ccccn2)n2nc(-c3ccccc3Cl)nc2N1 (configuration not stated)	inactive	–
Cc1c(C(=O)N(C)C(C)c2ccccn2)oc2c(F)cccc12 (configuration not stated)	–	inconclusive: 6.31 µM [falling, single point]
S=C1NC(c2ccccc2)=NCN1c1ccc(Br)cc1	inconclusive: 4.83%	–
O=C(Nc1cc(C2CC2)nn1-c1ccccc1)c1ccc(F)cc1	inactive	–
CCCSc1nnc(CNC(=O)C23CC4CC(CC(C4)C2)C3)n1Cc1ccccc1	inconclusive: -9.22%	–
O=C(C1CC(c2ccccc2O)=NO1)N1CCc2ccccc2C1 (configuration not stated)	inconclusive: -7.04%	–
CCOc1ccc(NC(=S)N(CCN2CCOCC2)Cc2ccc3c(c2)CCCN3CC)cc1	inactive	–
Cc1nc2ccccc2nc(=O)c1NNc1ccccc1	–	inconclusive: 29.1 µM [rising, single point]
Oc1ccc2ccccc2c1N=Nc1ccccn1	inconclusive: -0.345%	–
O=C(CCN1C(=O)C2CCCCC2C1=O)N1CCN(S(=O)(=O)c2c(F)cccc2F)CC1 (configuration not stated)	inconclusive: -6.19%	–
COc1ccc(CSCC(=O)NN=C2CCN(C)CC2)cc1	inconclusive: 1.5%	–
COc1ccc(Cn2c(O)c(C=Nc3ccccc3C(=O)O)c3ccccc3c2=O)cc1	–	inconclusive: 3.98 µM [falling, partial curve, poor fit]
C=CC(=O)Nc1ccc(Br)cc1	–	inconclusive: 29.1 µM [rising, single point]
